These are yes or no findings as the source states them, for the method shown. In cells and extracts the contact can be indirect. Some binding calls cover weakened binding; strength is not graded here.
What was measured:
[1] = target: 3XFlag-tagged overexpression HNRNPU protein (heterogeneous nuclear ribonucleoprotein U) (UniProt Q00839); experiment: co-IP; tagged protein (HNRNPU-Flag, its Flag-tagged mutants, or DDX5-Myc) in HEK293T against the endogenous partner; NP40 buffer, antibody overnight at 4 °C, protein G magnetic beads, immunoblotting
[2] = target: endogenous HNRNPU (heterogeneous nuclear ribonucleoprotein U) (human (endogenous in HEK293T)) (UniProt Q00839); experiment: co-IP; endogenous HNRNPU and endogenous DDX5 in HEK293T cells; immunoblotting

By UniProt entry, the sequences of proteins in these tests, tags left out.
UniProt Q00839: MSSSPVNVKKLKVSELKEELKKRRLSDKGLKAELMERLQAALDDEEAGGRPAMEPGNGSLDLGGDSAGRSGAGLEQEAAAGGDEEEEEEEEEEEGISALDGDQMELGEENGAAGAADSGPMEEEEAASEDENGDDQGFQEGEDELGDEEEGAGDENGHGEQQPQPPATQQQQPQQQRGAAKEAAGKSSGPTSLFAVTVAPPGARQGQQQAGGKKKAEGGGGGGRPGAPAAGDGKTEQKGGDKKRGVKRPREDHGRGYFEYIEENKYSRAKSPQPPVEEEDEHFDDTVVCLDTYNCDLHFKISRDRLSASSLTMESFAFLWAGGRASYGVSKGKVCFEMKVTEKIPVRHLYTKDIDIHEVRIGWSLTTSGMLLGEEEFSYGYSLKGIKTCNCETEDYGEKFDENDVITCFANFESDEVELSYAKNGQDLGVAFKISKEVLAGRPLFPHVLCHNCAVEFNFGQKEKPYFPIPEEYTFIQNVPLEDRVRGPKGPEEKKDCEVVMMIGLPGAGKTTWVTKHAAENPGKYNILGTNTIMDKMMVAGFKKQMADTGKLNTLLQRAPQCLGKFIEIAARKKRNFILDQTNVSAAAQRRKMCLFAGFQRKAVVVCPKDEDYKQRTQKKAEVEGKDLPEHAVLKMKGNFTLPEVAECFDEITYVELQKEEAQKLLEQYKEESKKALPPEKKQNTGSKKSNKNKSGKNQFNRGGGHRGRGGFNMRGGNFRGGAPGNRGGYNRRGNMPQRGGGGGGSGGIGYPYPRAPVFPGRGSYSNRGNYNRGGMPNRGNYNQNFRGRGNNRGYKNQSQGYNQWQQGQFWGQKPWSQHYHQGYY
UniProt P17844: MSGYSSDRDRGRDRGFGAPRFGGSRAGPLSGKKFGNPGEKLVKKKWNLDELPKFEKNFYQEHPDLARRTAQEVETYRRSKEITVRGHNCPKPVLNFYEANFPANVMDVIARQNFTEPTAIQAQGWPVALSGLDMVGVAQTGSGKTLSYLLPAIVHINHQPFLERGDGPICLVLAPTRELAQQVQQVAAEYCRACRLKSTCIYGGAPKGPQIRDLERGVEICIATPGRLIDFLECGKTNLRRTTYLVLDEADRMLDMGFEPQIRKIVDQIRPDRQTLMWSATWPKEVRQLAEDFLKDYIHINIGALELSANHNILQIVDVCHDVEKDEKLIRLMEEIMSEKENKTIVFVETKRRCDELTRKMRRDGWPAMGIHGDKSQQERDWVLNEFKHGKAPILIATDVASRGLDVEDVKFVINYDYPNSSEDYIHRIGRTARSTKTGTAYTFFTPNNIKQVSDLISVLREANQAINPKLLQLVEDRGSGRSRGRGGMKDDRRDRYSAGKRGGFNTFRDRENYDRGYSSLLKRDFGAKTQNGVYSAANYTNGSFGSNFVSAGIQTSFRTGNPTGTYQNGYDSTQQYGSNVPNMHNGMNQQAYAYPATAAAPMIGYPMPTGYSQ

“endogenous DDX5 (DEAD box helicase 5) (from UniProt P17844 1-614)” was tested, and the binding [1] was “binds” and the binding [2] was “binds”.

From article PMC9643420
